Consider one substance from US4965343 (dated 1990).

Series [1] can be described thus: general procedure: Boc solid-phase peptide synthesis; Boc-amino acid-OCH2-PAM resin (phenylacetamidomethyl polystyrene); BOP. The following applies: whole synthesis.
Series [2] in a line: general procedure: Boc solid-phase peptide synthesis; Boc-N-methyl-Phe-PAM resin; BOP. The following applies: whole synthesis, scale 100 mg sulfated peptide resin (0.0268 mmole).
Where [3] appears, read: overall, scale of the general procedure 100 mg peptide-resin (0.0268 mmole of peptide).

In turn, “Ac-Tyr(SO3 H)-Met-Gly-Trp-Met-Thr(SO3 H)-N-methyl-Phe-NH2” registered an isolated mass in series [1] of 2.8 mg. In series [1] (setting [3]), the crude yield was 57% and the isolated yield was found to be 20%. In series [2], this substance yielded a crude mass of 19.3 mg.
